Measurements taken from patent publication US20220259283A1 (AARHUS UNIVERSITET, published 2022).
Results are given in words; binding and its absence hold for the method and conditions named. For part of these data: In cells and extracts the contact can be indirect. Some entries that bind do so weakly or less than the wild type.

Amino acid sequences for entries named in this document (tags omitted). A change or cut given only in a name is not applied to a line headed by its entry. Chains listed by the source or under a name are the forms on record and can include a tag or linker.
hPGRN-6his (human progranulin with a C-terminal 6his-tag) (P28799, form named): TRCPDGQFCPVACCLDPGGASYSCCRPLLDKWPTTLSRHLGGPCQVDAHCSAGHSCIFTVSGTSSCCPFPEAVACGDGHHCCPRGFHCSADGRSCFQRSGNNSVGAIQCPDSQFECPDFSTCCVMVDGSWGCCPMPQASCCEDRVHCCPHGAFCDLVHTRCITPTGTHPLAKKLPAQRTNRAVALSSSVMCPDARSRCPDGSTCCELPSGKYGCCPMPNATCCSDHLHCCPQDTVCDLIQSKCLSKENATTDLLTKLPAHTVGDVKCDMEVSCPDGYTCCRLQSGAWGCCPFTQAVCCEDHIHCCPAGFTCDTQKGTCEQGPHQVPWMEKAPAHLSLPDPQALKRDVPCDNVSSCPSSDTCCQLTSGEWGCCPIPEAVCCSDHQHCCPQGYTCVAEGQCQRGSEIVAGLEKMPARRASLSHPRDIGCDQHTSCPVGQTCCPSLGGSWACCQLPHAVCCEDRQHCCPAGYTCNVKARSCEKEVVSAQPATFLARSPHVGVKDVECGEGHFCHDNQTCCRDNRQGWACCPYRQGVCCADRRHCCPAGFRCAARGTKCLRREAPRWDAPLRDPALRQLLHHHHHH
UniProt Q96PQ0: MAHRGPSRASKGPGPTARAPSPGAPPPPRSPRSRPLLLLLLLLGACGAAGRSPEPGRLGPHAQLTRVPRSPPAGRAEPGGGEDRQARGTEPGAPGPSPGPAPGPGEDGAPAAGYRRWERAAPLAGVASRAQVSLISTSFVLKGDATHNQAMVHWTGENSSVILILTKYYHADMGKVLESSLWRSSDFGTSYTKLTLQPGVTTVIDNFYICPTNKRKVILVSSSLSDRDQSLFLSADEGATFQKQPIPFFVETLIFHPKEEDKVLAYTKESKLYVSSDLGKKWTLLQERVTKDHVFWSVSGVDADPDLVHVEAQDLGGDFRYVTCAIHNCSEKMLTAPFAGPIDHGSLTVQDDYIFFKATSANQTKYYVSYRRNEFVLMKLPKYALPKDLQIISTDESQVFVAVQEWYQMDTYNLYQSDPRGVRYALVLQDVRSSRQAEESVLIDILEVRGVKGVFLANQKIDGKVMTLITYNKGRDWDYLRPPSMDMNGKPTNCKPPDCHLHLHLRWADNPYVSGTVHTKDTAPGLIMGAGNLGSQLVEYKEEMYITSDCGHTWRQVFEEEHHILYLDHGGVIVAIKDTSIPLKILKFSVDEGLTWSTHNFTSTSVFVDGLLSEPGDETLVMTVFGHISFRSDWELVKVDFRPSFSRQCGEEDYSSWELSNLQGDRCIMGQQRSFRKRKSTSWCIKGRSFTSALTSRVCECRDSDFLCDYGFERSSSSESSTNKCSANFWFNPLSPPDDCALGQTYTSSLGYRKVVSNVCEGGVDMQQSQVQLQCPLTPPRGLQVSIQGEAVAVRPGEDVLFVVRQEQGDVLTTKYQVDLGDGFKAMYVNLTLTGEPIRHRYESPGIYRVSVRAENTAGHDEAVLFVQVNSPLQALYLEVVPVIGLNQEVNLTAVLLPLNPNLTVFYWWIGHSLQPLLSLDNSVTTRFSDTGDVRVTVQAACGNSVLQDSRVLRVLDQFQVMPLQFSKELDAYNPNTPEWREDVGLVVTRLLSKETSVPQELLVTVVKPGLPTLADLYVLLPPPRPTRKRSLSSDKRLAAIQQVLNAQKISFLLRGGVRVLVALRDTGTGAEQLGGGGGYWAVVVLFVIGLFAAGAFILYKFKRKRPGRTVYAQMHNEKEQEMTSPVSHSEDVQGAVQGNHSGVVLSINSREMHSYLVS

Assays:
[1] = molecular target: hPGRN-6his (human progranulin with a C-terminal 6his-tag) (human) (UniProt P28799); assay: SPR and MST
[2] = molecular target: T1, hamster progranulin (expressed by the CHO-K1 cells) (hamster) (UniProt G3HLK3); assay: co-purification, MALDI MS/MS
T1 sequence: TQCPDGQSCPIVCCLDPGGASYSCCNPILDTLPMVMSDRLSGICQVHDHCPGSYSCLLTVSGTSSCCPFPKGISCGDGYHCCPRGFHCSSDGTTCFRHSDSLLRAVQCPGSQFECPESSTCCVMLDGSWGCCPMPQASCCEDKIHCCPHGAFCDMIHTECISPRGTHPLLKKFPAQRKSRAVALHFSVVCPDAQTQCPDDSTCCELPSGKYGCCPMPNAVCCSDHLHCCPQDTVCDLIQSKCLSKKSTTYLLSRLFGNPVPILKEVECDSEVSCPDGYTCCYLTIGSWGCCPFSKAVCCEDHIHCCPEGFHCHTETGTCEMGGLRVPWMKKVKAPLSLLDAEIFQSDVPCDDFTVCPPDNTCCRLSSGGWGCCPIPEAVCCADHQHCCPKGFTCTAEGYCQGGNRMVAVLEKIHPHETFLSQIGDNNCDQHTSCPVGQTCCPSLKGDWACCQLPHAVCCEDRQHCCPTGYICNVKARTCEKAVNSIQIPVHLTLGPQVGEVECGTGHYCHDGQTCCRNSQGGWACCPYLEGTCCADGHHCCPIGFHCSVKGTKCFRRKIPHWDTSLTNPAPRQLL

[3] = molecular target: T1, hamster progranulin (expressed by the CHO-K1 cells) (hamster); assay: co-purification on Talon beads from CHO-K1 medium, SDS-PAGE band identified by MALDI MS/MS

Measured: binding

hSorCS2-6his (extracellular domain of human SorCS2 with a C-terminal 6His-tag) (from UniProt Q96PQ0 51-1076) (receptor)
binds: [1] | [2] | [3]
